The subject of this assay is L1210 leukemia ip in BDF1 mice, survival T/C. Briefly: NCI In Vivo Anticancer Drug Screen. Data for tumor model L1210 Leukemia (intraperitoneal) in B6D2F1 (BDF1) mice. The conditions noted are these: T/C endpoint: mean survival time, higher T/C = longer survival.
The mark [1] stands for this setting: dose: 200.0 mg/kg/injection, schedule: Q01DX009 (ip), vehicle: saline.
The mark [2] stands for this setting: dose: 400.0 mg/kg/injection, schedule: Q04DX003 (ip), vehicle: saline.
[3] abbreviates: dose: 100.0 mg/kg/injection, schedule: Q04DX003 (ip), vehicle: saline.
The mark [4] stands for this setting: dose: 200.0 mg/kg/injection, schedule: Q04DX003 (ip), vehicle: saline.
Where [5] appears, read: dose: 100.0 mg/kg/injection, schedule: Q01DX Z (ip), vehicle: methylcellulose (MC).
Where [6] appears, read: dose: 400.0 mg/kg/injection, schedule: Q01DX009 (ip), vehicle: saline.
Setting [7] is: dose: 400.0 mg/kg/injection, schedule: Q04DX003 (ip), vehicle: Klucel (hydroxypropylcellulose) (HPC).

The list does not hold the whole screen: it is rich in T/C values a quarter to a half above the control, in often repeated tests (any T/C) and in doses without a T/C. Other doses and runs of a compound stand elsewhere. T/C: endpoint of the treated group in % of that of the vehicle group. Some doses have a count of surviving animals in place of a T/C: the source holds a T/C of zero for them, seemingly a mark for toxic or unscored doses. Some survivor counts are full or nearly so, which does not show that the dose was tolerated: the source hardly ever lists a survival T/C far under the control, and the zero likely stands for such cases as well. Counts of survivors are from the toxicity check (mostly the fifth day) where no day follows; animals may have died later. Schedule codes are those of the source, read here as Q, the interval in days (D) or hours (H), X, the number of doses. Some schedules carry Z or #; the key to these is not given. Some structures stand for samples that the source files as different forms (salt, stereo form or complex); doses refer to the form tested. Some entries were tested several times; the values are given in rising order. Where survival is the endpoint, this PubChem deposit counts one and a half times the control or more as active, and values a quarter to a half above the control carry no call in these data; other NCI protocols may use other cut-offs. Some T/C values carry the count of animals alive at the toxicity check (mostly the fifth day); without a count, all were alive then.

On to `CCNCCCOCC`, for which the survivor count runs as follows: (dose: 100.0 mg/kg/injection, schedule: Q01DX009 (ip), vehicle: saline) 5 of 6; under setting [1], 0 of 6; under setting [2], 0 of 6.

For the compound `C1=C\C2CC2CCCC/1` (configuration not stated), the survivor count is 3 of 3 (dose: 100.0 mg/kg/injection, schedule: Q01DX005 (ip), vehicle: saline with Tween-80); 3 of 3 (dose: 200.0 mg/kg/injection, schedule: Q01DX005 (ip), vehicle: saline with Tween-80); 3 of 3 (dose: 400.0 mg/kg/injection, schedule: Q01DX005 (ip), vehicle: saline with Tween-80).

For `CN(C)c1ccc(-c2cc[n+](C)cc2)cc1`, the survivor count (dose: 12.5 mg/kg/injection, schedule: Q04DX003 (ip), vehicle: saline) was 0 of 6; the survivor count (dose: 25.0 mg/kg/injection, schedule: Q04DX003 (ip), vehicle: saline) is 0 of 6; the survivor count (dose: 50.0 mg/kg/injection, schedule: Q04DX003 (ip), vehicle: saline) is 0 of 6; the survivor count under setting [3] was 0 of 6; the survivor count under setting [4] is given as 0 of 6; the survivor count under setting [2] is recorded as 0 of 6.

On to `C[N+](C)(C)c1ccc([N+](=O)[O-])cn1`, for which the survivor count reads like this: under setting [4], 1 of 6; under setting [2], 0 of 6.

In the case of `Nc1c(Cl)nc(Cl)nc1C(F)(F)F`, the survivor count by setting is: (dose: 66.0 mg/kg/injection, schedule: Q01DX Z (ip), vehicle: methylcellulose (MC)) 5 of 6; under setting [5], 3 of 6.

For `CC(C#N)Oc1cccc2ccccc12` (configuration not stated), the survivor count (dose: 400.0 mg/kg/injection, schedule: Q01DX009 (ip), vehicle: DMSO) is given as 3 of 6.

With `CCOC(=O)C(C(=N)C#N)C(C)=O` (configuration not stated), the survivor count was 6 of 6 (dose: 25.0 mg/kg/injection, schedule: Q04DX003 (ip), vehicle: saline with Tween-80); 6 of 6 (dose: 100.0 mg/kg/injection, schedule: Q04DX003 (ip), vehicle: saline with Tween-80); 4 of 6 (dose: 200.0 mg/kg/injection, schedule: Q04DX003 (ip), vehicle: saline with Tween-80); 0 of 6 (dose: 400.0 mg/kg/injection, schedule: Q04DX003 (ip), vehicle: saline with Tween-80).

With `CCC[CH2][Sn]([CH2]CCC)([O]S(C)(=O)=O)[O]S(C)(=O)=O`, the survivor count is 0 of 3 (dose: 6.25 mg/kg/injection, schedule: Q01DX009 (ip), vehicle: Klucel (hydroxypropylcellulose) (HPC)); 0 of 3 (dose: 12.5 mg/kg/injection, schedule: Q01DX009 (ip), vehicle: Klucel (hydroxypropylcellulose) (HPC)); 0 of 3 (dose: 25.0 mg/kg/injection, schedule: Q01DX009 (ip), vehicle: Klucel (hydroxypropylcellulose) (HPC)); 0 of 3 (dose: 50.0 mg/kg/injection, schedule: Q01DX009 (ip), vehicle: Klucel (hydroxypropylcellulose) (HPC)); 0 of 3 and 0 of 6 (dose: 100.0 mg/kg/injection, schedule: Q01DX009 (ip), vehicle: Klucel (hydroxypropylcellulose) (HPC)); 0 of 6 (dose: 200.0 mg/kg/injection, schedule: Q01DX009 (ip), vehicle: Klucel (hydroxypropylcellulose) (HPC)). In addition, the survivor count (dose: 400.0 mg/kg/injection, schedule: Q01DX009 (ip), vehicle: Klucel (hydroxypropylcellulose) (HPC)) is reported as 0 of 6.

For the compound `NC(N)=Nc1ccc(C(=O)Oc2ccc([N+](=O)[O-])cc2CN2CCCCC2)cc1`, the survivor count by setting is: (dose: 6.25 mg/kg/injection, schedule: Q04DX003 (ip), vehicle: water) 2 of 6; (dose: 12.5 mg/kg/injection, schedule: Q04DX003 (ip), vehicle: water) 0 of 6; (dose: 25.0 mg/kg/injection, schedule: Q01DX009 (ip), vehicle: water) 0 of 6; (dose: 25.0 mg/kg/injection, schedule: Q04DX003 (ip), vehicle: water) 2 of 6; (dose: 50.0 mg/kg/injection, schedule: Q04DX003 (ip), vehicle: water) 0 of 6; (dose: 100.0 mg/kg/injection, schedule: Q04DX003 (ip), vehicle: water) 2 of 6. In addition, the survivor count by setting is: (dose: 200.0 mg/kg/injection, schedule: Q04DX003 (ip), vehicle: water) 1 of 6; (dose: 400.0 mg/kg/injection, schedule: Q04DX003 (ip), vehicle: water) 0 of 6.

`CCCC(=O)C(CCN(C)C)c1ccccn1` (configuration not stated): the survivor count under setting [5] was 2 of 6.

Regarding `CC(=O)OC(C)(C)/C=C/C(=O)C(C)(O)C1C(O)CC2(C)C3CC=C4C(C=C(OC5OC(CO)C(O)C(O)C5O)C(=O)C4(C)C)C3(C)C(=O)CC12C` (configuration not stated), the survivor count by setting is: (dose: 200.0 mg/kg/injection, schedule: Q04DX002 (ip), vehicle: saline with Tween-80) 2 of 3; (dose: 400.0 mg/kg/injection, schedule: Q04DX002 (ip), vehicle: saline with Tween-80) 1 of 3.

Turning to `CCN(CC)CCn1c2ccccc2c2cc3cnccc3c(C)c21`, under “dose: 300.0 mg/kg/injection, schedule: Q04DX003 (ip), vehicle: Klucel (hydroxypropylcellulose) (HPC)”, the survivor count is on record as 8 of 10.

As to `O=C(O)c1cc(N=Nc2ccccc2)ccc1O`, the survivor count by setting is: (dose: 200.0 mg/kg/injection, schedule: Q01DX009 (ip), vehicle: saline with Tween-80) 3 of 6; (dose: 400.0 mg/kg/injection, schedule: Q01DX001 (ip), vehicle: other) 1 of 6; under setting [2], 6 of 6.

In the case of `COC1OCC(O)C(NC(=O)N(C)N=O)C1O` (configuration not stated), the T/C reads like this: (dose: 12.5 mg/kg/injection, schedule: Q01DX009 (ip), vehicle: saline) 135 % of control; (dose: 44.0 mg/kg/injection, schedule: Q04DX003 (ip), vehicle: saline) 126 % of control; (dose: 50.0 mg/kg/injection, schedule: Q01DX009 (ip), vehicle: saline) 144 % of control; (dose: 66.0 mg/kg/injection, schedule: Q04DX003 (ip), vehicle: saline) 126 [5 of 6 alive], 135, 138 % of control; under setting [3], 136 and 145 % of control; (dose: 150.0 mg/kg/injection, schedule: Q01DX009 (ip), vehicle: citric acid) 144 % of control. Under setting [1], the T/C was 134 % of control. The survivor count runs as follows: (dose: 300.0 mg/kg/injection, schedule: Q01DX009 (ip), vehicle: citric acid) 7 of 10; under setting [6], 5 of 6.

Consider `O=C(CC(C(=O)O)N1CCOCC1)c1ccccc1` (configuration not stated), for which the survivor count under setting [7] is reported as 0 of 6.

Take `O=C(NCCCN1CC1)C(=O)NNc1ccccc1`: the survivor count under setting [7] is given as 3 of 6.

Consider `O=C(N/N=C/c1ccncc1)c1ccccc1`, for which, under setting [6], the survivor count is given as 3 of 6.

As to `Nc1nc(N)c(N)c(Nc2ccc(Cl)cc2)n1`, the survivor count (dose: 400.0 mg/kg/injection, schedule: Q04DX002 (ip), vehicle: Klucel (hydroxypropylcellulose) (HPC)) is reported as 0 of 3.

For the compound `CCOC(=O)CNCC(O)C(Cl)(Cl)Cl` (configuration not stated), under “dose: 400.0 mg/kg/injection, schedule: Q01DX009 (ip), vehicle: saline with Tween-80”, the survivor count is recorded as 5 of 6.

Values taken from PubChem BioAssay AID248 (DTP/NCI, 2004).
